{"source": "patent US20230203461A1", "about": "“BETA-ETHERASES FOR LIGNIN DEPOLYMERISATION” (The University of York, priority 2020, published 2023)", "test_system": "Tyrosinase", "assay": "Phenol oxidase assay (substrate specificity) with tyrosinase", "type": "biochemical, Agaricus bisporus", "settings": "1 mM substrate, Tris pH 8.5, room temperature, UV-Vis spectra over 2 h", "note": "At least one compound was matched to its structure with a doubt left."}
{"molecule": "Cc1ccc(O)c(O)c1", "note": "[4-Methly-catechol]", "values": [{"measurement": "Tyrosinase reactivity", "value": "+"}]}
